Reference: the supplement of paper PMC6411743
± gives the standard deviation of the averaged measurements. Only a part is listed here, and it is no random draw.

The chains behind the UniProt entries cited, without tags or fusion partners. Where a name states a change or a piece, a line headed by the entry shows the natural chain unless it says otherwise.
UniProt Q9UH03, whole entry: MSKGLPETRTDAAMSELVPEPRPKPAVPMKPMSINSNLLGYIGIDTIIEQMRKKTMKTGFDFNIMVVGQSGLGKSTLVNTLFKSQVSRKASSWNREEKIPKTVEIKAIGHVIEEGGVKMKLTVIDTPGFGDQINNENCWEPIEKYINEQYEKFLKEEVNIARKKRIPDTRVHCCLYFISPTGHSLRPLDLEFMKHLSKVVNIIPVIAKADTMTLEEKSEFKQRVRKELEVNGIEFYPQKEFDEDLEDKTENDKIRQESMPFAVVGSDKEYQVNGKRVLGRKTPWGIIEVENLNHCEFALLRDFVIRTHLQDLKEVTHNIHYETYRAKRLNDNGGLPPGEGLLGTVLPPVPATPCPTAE
UniProt Q9UBI1, whole entry: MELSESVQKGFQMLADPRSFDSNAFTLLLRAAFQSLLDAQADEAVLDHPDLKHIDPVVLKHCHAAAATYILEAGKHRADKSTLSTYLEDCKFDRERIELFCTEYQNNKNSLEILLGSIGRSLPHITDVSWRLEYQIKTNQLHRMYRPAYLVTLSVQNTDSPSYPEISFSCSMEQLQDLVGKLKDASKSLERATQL
UniProt Q9UDW1: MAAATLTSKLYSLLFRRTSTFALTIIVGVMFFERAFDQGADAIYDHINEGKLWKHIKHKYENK
UniProt Q9UBB5, whole entry: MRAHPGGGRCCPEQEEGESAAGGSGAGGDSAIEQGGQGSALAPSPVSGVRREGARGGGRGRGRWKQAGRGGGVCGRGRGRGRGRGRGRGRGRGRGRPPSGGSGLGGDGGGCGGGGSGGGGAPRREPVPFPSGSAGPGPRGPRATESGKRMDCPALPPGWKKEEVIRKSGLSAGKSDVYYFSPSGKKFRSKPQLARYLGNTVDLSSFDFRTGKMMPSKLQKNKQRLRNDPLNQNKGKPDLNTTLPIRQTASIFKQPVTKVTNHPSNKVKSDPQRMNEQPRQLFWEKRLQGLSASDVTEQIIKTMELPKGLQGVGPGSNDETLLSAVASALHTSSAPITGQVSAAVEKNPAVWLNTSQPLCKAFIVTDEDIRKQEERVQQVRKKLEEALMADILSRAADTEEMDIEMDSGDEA
UniProt Q9UPR3: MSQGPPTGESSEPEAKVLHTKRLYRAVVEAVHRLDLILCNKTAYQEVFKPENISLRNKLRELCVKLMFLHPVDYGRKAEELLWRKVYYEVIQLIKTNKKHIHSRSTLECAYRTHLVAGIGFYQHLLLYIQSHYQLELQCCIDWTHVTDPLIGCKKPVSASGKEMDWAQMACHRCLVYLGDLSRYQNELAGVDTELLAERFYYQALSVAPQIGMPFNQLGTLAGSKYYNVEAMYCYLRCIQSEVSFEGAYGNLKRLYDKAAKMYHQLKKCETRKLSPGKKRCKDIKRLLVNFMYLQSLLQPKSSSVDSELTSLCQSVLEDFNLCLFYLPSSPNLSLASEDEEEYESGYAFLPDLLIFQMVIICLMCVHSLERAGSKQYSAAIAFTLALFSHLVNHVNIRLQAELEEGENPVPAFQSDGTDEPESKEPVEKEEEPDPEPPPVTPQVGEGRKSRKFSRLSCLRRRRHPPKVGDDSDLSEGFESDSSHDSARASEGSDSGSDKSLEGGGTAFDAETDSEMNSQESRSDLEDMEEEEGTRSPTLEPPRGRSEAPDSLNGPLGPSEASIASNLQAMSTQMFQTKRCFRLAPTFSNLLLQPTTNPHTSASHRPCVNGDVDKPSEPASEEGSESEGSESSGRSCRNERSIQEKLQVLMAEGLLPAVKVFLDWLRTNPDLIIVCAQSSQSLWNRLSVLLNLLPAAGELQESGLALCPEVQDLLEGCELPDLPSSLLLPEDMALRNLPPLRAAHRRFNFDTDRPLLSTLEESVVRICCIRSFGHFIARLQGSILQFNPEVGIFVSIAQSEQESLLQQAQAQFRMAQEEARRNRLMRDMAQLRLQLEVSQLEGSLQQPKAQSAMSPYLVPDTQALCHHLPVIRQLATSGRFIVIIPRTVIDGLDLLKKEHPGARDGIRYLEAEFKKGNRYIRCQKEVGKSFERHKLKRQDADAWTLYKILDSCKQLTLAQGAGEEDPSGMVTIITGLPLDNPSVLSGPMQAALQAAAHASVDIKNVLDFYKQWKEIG
UniProt Q9UBP0: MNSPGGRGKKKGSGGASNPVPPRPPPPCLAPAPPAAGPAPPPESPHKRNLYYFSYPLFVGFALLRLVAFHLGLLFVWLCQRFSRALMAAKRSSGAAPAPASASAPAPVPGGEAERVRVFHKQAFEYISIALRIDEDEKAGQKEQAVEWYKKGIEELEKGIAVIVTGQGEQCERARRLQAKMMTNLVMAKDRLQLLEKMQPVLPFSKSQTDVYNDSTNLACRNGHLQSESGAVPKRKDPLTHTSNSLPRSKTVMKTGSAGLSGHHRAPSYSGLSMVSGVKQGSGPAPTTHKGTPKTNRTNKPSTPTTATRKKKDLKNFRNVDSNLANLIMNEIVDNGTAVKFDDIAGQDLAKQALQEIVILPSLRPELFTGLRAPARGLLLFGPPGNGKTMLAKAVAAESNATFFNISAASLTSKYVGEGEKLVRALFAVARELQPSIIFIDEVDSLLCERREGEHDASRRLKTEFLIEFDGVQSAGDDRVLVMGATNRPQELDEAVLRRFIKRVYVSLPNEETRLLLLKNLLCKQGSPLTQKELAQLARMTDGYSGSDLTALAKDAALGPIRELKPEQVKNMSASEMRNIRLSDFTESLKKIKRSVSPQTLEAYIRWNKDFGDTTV
UniProt Q9ULH0: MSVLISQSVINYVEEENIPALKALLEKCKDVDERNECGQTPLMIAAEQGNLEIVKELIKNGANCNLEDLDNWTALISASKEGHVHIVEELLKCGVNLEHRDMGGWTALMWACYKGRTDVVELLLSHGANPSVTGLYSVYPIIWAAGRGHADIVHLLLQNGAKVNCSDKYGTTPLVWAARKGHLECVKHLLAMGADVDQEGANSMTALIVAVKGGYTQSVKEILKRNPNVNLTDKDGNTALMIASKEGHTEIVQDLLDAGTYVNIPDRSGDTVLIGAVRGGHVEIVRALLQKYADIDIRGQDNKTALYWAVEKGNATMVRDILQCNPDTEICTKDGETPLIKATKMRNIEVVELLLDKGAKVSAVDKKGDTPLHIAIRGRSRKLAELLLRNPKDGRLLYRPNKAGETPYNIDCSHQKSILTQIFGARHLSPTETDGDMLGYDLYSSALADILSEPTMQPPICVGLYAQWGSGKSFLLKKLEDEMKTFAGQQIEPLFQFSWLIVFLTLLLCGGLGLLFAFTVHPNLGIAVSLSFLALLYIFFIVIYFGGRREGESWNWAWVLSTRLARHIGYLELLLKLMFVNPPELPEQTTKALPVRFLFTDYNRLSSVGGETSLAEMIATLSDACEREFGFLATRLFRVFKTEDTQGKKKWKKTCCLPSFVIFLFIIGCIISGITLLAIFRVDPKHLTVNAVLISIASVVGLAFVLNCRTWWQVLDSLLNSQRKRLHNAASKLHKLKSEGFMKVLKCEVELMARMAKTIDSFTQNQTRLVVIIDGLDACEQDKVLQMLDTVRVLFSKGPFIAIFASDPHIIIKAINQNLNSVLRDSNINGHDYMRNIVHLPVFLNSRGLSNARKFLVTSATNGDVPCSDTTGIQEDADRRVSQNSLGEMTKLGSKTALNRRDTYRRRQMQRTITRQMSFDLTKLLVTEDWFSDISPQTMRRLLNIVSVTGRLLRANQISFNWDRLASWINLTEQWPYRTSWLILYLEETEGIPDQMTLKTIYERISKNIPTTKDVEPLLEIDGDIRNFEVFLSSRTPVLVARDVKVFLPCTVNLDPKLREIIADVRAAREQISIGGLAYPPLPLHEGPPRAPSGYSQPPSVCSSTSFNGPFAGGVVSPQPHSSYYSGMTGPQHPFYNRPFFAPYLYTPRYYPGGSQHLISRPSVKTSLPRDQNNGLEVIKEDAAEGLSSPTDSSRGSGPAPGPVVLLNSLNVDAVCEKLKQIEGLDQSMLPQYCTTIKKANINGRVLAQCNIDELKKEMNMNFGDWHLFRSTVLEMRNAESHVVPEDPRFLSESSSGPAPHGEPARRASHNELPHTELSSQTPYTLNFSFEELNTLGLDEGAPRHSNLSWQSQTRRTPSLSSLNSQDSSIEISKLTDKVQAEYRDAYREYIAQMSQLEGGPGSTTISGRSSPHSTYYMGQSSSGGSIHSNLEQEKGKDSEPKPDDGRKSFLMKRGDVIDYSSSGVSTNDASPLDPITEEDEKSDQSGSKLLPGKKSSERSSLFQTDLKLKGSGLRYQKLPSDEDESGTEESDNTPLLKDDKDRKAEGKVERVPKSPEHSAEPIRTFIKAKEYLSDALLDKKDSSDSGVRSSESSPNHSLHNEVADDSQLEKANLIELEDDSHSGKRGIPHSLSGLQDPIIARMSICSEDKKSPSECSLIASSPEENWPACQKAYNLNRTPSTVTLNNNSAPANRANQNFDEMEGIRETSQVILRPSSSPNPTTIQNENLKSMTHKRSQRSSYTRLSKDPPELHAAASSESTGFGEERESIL
UniProt Q9UQ84: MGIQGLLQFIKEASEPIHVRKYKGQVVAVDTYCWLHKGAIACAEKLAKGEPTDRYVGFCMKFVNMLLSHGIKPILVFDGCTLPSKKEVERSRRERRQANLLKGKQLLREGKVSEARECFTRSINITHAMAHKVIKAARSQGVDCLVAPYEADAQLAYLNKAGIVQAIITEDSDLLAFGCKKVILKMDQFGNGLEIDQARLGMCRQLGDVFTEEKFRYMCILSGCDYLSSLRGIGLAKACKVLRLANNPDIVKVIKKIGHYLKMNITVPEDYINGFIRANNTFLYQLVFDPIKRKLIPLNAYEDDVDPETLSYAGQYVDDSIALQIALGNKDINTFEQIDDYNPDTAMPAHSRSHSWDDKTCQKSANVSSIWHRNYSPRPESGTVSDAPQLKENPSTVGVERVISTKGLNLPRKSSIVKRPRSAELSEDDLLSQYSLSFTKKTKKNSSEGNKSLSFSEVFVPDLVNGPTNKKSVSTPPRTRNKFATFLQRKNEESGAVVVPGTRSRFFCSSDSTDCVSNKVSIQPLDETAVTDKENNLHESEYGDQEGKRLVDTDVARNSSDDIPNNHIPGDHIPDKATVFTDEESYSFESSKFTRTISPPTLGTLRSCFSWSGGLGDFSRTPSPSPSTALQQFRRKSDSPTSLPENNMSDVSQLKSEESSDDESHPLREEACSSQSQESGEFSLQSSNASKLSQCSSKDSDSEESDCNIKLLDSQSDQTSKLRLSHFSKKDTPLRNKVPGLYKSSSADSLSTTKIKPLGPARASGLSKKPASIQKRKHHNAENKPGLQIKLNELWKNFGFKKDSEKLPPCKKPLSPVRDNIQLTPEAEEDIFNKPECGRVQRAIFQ
UniProt Q9ULU4: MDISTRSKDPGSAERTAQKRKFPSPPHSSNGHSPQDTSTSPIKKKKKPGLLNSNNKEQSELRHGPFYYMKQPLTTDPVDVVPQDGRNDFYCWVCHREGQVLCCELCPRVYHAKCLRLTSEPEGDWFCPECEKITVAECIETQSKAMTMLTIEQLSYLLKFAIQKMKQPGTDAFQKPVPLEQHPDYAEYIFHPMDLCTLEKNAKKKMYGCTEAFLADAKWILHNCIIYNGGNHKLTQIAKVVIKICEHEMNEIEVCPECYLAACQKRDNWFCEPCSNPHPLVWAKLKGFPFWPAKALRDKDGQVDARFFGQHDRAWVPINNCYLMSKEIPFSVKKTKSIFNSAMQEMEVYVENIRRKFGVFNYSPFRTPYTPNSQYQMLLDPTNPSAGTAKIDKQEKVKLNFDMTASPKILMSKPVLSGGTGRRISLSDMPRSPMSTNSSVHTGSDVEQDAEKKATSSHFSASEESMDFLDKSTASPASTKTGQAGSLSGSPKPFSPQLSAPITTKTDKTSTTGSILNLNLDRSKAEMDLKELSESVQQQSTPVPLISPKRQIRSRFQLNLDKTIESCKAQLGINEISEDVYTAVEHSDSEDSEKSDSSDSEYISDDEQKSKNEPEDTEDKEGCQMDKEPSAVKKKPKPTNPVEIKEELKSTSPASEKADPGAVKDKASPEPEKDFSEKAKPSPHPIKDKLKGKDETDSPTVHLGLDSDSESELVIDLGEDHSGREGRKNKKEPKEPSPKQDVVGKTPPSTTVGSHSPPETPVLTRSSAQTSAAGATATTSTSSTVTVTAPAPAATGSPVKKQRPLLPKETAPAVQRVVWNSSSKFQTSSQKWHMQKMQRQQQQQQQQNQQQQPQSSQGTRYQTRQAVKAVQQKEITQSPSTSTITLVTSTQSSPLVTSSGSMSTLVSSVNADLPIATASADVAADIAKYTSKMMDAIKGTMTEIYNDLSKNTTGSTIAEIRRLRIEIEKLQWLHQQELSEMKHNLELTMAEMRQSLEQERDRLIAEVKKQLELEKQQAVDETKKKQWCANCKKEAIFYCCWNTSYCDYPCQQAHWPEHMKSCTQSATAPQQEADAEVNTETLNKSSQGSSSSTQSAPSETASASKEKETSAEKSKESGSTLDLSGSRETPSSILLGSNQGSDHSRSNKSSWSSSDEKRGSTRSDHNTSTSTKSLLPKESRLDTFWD

Compound: Nc1ncnc2c1ncn2[C@@H]1O[C@H](COP(=O)(O)OP(=O)(O)OP(=O)(O)O)[C@@H](O)[C@H]1O [adenosine triphosphate]
Assay: NP40-soluble protein abundance relative to vehicle (solubility fold change) (ratio); higher = more soluble protein in presence of ATP
Outline: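 Jurkat crude lysate prepared with a Dounce homogeniser was treated at eight concentrations spanning 0.1 to 10 mM, 10 min at room temperature then 3 min at 37 °C. Solubilisation with 0.8% NP40 and benzonase and ultracentrifugation preceded TMT labelling of the supernatant for LC-MS/MS. Fold change against the detergent-processed vehicle was determined per replicate from vsn-normalised intensities, across three independent experiments.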

Target	NP40-soluble protein abundance (concentration: 1mM)	NP40-soluble protein abundance (concentration: 2mM)	NP40-soluble protein abundance (concentration: 4mM)	NP40-soluble protein abundance (concentration: 6mM)	NP40-soluble protein abundance (concentration: 8mM)	NP40-soluble protein abundance (concentration: 10mM)
RCC2 (UniProt Q9P258)	1.04 ± 0.045	1.03 ± 0.048	1.03 ± 0.056	1.02 ± 0.072	1.02 ± 0.052	1.03 ± 0.045
UniProt Q9UGR2 and related entries	1.03 ± 0.019	1.04 ± 0.02	1.08 ± 0.044	1.05 ± 0.022	1.06 ± 0.018	1.06 ± 0.025
PA2G4 (UniProt Q9UQ80)	0.9222 ± 0.0047	0.922 ± 0.015	0.874 ± 0.026	0.957 ± 0.046	0.91 ± 0.021	0.934 ± 0.039
UniProt Q9UH03 and related entries	0.993 ± 0.02	0.979 ± 0.034	0.954 ± 0.055	1.02 ± 0.037	0.986 ± 0.015	0.952 ± 0.039
UniProt Q9UI12 and related entries	0.983 ± 0.04	0.964 ± 0.018	0.934 ± 0.014	0.967 ± 0.034	0.937 ± 0.0084	0.947 ± 0.038
NUDC (UniProt Q9Y266)	0.921 ± 0.05	0.921 ± 0.019	0.886 ± 0.022	0.957 ± 0.024	0.889 ± 0.0069	0.8887 ± 0.0075
NDUFA12 (UniProt Q9UI09)	0.954 ± 0.023	0.9719 ± 0.0096	0.916 ± 0.067	0.933 ± 0.087	0.961 ± 0.079	0.954 ± 0.054
UniProt Q9UBI1 and related entries	1.04 ± 0.015	1.028 ± 0.0053	1.02 ± 0.027	1.02 ± 0.031	1.06 ± 0.046	1.03 ± 0.058
GNPTG (UniProt Q9UJJ9)	0.958 ± 0.1	0.93 ± 0.043	0.964 ± 0.081	0.94 ± 0.15	0.93 ± 0.068	0.907 ± 0.055
UniProt Q9UJU6 and related entries	0.954 ± 0.015	0.937 ± 0.018	0.9307 ± 0.0081	0.949 ± 0.038	0.914 ± 0.033	0.936 ± 0.033
UniProt Q9UDW1	0.796 ± 0.055	0.816 ± 0.1	0.817 ± 0.1	0.699 ± 0.093	0.766 ± 0.12	0.706 ± 0.1
MBD2 (UniProt Q9UBB5)	1.07 ± 0.11	1.05 ± 0.11	1.07 ± 0.1	1.1 ± 0.19	1.09 ± 0.097	1.08 ± 0.12
SMG5 (UniProt Q9UPR3)	0.956 ± 0.028	0.9436 ± 0.0076	1 ± 0.017	1.01 ± 0.042	0.961 ± 0.047	0.973 ± 0.13
UniProt Q9UBP0 and related entries	0.985 ± 0.02	1.01 ± 0.014	1.01 ± 0.027	1.03 ± 0.018	0.98 ± 0.041	1.028 ± 0.0089
UniProt Q9UQ49 and related entries	0.985 ± 0.16	0.971 ± 0.074	0.961 ± 0.059	0.795 ± 0.31	0.811 ± 0.21	1.02 ± 0.06
UniProt Q9Y259 and related entries	1.02 ± 0.073	1.06 ± 0.069	1.036 ± 0.0097	1.01 ± 0.059	1.02 ± 0.056	1.03 ± 0.051
UniProt Q9UHD8 and related entries	1.01 ± 0.021	1 ± 0.03	0.987 ± 0.036	0.984 ± 0.044	0.988 ± 0.042	0.963 ± 0.03

Target	NP40-soluble protein abundance (concentration: 1mM)	NP40-soluble protein abundance (concentration: 2mM)	NP40-soluble protein abundance (concentration: 4mM)	NP40-soluble protein abundance (concentration: 6mM)	NP40-soluble protein abundance (concentration: 8mM)	NP40-soluble protein abundance (concentration: 10mM)
UniProt Q9ULC4 and related entries	0.98 ± 0.034	0.985 ± 0.039	0.971 ± 0.027	0.927 ± 0.078	0.977 ± 0.052	0.98 ± 0.05
UniProt Q9UDY2 and related entries	1.18 ± 0.037	1.22 ± 0.056	1.26 ± 0.13	1.28 ± 0.1	1.2 ± 0.082	1.26 ± 0.13
UniProt Q9UEW8 and related entries	1.01 ± 0.055	0.982 ± 0.065	0.938 ± 0.064	0.949 ± 0.016	0.941 ± 0.027	0.931 ± 0.028
UniProt Q9UKV8	1.09 ± 0.022	1.09 ± 0.019	1.11 ± 0.034	1.06 ± 0.032	1.12 ± 0.026	1.15 ± 0.016
UniProt Q9ULH0 and related entries	1.08 ± 0.068	1.07 ± 0.018	1.07 ± 0.028	1.09 ± 0.081	1.04 ± 0.042	1.09 ± 0.04
UniProt Q9UKW4 and related entries	1.03 ± 0.073	1.02 ± 0.062	0.982 ± 0.053	0.961 ± 0.1	0.999 ± 0.074	0.981 ± 0.05
PNMA2 (UniProt Q9UL42)	0.973 ± 0.033	1.01 ± 0.056	0.969 ± 0.026	0.976 ± 0.072	1.01 ± 0.038	0.978 ± 0.031
UniProt Q9UJX6 and related entries	1.04 ± 0.12	0.954 ± 0.025	0.979 ± 0.045	0.899 ± 0.038	1.05 ± 0.019	0.998 ± 0.06
MKLN1 (UniProt Q9UL63)	0.992 ± 0.06	0.945 ± 0.024	0.959 ± 0.034	0.943 ± 0.089	0.969 ± 0.086	0.932 ± 0.028
MINPP1 (UniProt Q9UNW1)	0.96769 ± 0.00085	0.979 ± 0.032	0.94 ± 0.02	0.966 ± 0.04	0.9225 ± 0.0078	0.933 ± 0.023
UniProt Q9UQ84 and related entries	0.963 ± 0.13	1.065 ± 0.0071	1.088 ± 0.0069	1.1 ± 0.095	1.04 ± 0.038	1.08 ± 0.019
UniProt Q9ULJ3	1 ± 0.037	0.979 ± 0.053	0.958 ± 0.053	0.939 ± 0.084	0.886 ± 0.053	0.903 ± 0.022
UniProt Q9ULU4 and related entries	1.08 ± 0.015	1.07 ± 0.052	1.1 ± 0.05	1.14 ± 0.13	1.12 ± 0.076	1.14 ± 0.068
UniProt Q9UKM9 and related entries	1.05 ± 0.064	1.05 ± 0.1	1.02 ± 0.11	1.05 ± 0.15	1.01 ± 0.14	1.03 ± 0.11
UniProt Q9UQ13 and related entries	1.01 ± 0.05	0.951 ± 0.056	0.958 ± 0.052	1.04 ± 0.074	0.952 ± 0.053	0.924 ± 0.043
PACSIN3 (UniProt Q9UKS6)	1.02 ± 0.029	1.01 ± 0.034	1.05 ± 0.033	1.01 ± 0.014	1.05 ± 0.031	1.06 ± 0.011

Limited to NP40-soluble protein abundance (concentration: 1mM), for some of the entries so far:

| Target | NP40-soluble protein abundance (concentration: 1mM) |
| --- | --- |
| UniProt Q9UQ84 and related entries | 0.963 ± 0.13 |
| UniProt Q9ULJ3 | 1 ± 0.037 |
